From doi:10.1101/2025.10.16.682774 (bioRxiv, 2025)

The chains behind the UniProt entries cited, without tags or fusion partners. Where a name states a change or a piece, a line headed by the entry shows the natural chain unless it says otherwise.
UniProt O15027: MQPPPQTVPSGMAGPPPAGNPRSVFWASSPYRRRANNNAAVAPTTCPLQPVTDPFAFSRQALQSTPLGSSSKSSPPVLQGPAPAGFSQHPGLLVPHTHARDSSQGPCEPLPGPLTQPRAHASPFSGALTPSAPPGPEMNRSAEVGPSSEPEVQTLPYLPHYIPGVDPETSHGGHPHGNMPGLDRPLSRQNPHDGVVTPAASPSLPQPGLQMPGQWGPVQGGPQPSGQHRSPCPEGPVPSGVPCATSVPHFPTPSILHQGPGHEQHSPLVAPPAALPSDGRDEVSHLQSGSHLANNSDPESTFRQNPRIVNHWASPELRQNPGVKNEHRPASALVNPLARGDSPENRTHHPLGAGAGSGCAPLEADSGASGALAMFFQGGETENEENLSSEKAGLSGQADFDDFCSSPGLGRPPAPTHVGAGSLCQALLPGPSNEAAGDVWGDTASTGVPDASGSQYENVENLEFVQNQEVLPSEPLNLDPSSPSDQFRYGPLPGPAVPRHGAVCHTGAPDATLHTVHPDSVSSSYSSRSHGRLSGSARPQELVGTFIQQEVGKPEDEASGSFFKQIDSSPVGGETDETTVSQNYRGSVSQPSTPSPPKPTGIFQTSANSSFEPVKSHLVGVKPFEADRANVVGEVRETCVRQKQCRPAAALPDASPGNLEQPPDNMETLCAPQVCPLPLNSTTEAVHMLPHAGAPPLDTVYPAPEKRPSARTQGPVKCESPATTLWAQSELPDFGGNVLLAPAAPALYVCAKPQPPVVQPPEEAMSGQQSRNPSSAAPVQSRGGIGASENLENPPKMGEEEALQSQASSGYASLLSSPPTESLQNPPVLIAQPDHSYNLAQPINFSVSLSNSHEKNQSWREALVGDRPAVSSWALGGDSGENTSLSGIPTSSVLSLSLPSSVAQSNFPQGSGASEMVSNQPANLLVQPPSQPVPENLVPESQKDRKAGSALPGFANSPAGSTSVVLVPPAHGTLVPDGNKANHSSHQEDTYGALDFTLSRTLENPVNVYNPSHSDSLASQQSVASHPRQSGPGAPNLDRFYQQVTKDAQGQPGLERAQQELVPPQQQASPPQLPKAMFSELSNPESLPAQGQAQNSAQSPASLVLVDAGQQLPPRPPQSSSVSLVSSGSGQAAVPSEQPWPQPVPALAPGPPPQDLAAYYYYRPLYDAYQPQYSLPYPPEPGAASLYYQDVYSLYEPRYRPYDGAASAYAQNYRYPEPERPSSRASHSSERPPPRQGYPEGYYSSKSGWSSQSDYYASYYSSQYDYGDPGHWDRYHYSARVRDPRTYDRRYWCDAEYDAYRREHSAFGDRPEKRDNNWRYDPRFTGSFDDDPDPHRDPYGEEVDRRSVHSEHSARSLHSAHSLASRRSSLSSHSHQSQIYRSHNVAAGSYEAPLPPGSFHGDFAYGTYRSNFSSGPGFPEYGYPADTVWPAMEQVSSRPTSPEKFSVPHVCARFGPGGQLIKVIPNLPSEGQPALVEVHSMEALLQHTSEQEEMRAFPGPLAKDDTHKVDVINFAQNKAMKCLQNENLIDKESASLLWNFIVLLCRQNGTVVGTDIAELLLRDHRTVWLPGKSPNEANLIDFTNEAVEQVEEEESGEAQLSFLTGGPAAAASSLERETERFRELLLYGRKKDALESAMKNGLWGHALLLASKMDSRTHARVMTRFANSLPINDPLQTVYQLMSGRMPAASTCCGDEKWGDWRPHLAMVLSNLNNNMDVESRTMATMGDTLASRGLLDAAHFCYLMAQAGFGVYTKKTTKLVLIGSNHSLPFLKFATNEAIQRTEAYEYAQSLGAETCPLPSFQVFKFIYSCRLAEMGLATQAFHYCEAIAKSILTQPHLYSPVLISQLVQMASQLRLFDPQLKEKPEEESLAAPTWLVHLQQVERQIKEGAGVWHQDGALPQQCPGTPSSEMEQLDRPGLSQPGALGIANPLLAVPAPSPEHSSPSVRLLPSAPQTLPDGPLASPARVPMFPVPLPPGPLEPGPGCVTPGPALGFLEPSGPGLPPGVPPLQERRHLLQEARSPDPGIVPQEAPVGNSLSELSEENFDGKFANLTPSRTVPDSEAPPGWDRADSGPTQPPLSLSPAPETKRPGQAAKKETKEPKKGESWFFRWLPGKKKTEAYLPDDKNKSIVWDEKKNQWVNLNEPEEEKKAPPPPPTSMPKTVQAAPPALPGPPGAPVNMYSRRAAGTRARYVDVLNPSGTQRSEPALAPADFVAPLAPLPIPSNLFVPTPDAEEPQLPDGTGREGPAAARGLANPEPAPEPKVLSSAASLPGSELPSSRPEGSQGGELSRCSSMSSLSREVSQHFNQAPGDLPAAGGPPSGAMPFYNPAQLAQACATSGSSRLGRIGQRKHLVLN

Legend:
[1] = target: Sec16A(650-776) site 2 mutant, GFP fusion (human) (UniProt O15027); experiment: co-IP
[2] = target: Sec16A(650-776) site 1 mutant, GFP fusion (human) (UniProt O15027); experiment: co-IP
[3] = target: mitochondrial form of Sec16A(650-776), site 2 mutant (human) (UniProt O15027); experiment: mitochondrial relocation assay
[4] = target: mitochondrial form of Sec16A(650-776), site 1 mutant (human) (UniProt O15027); experiment: mitochondrial relocation assay

B1: endogenous p115 (HEK293T) (protein, UniProt O60763 1-962)
chain: MNFLRGVMGGQSAGPQHTEAETIQKLCDRVASSTLLDDRRNAVRALKSLSKKYRLEVGIQAMEHLIHVLQTDRSDSEIIGYALDTLYNIISNEEEEEVEENSTRQSEDLGSQFTEIFIKQQENVTLLLSLLEEFDFHVRWPGVKLLTSLLKQLGPQVQQIILVSPMGVSRLMDLLADSREVIRNDGVLLLQALTRSNGAIQKIVAFENAFERLLDIISEEGNSDGGIVVEDCLILLQNLLKNNNSNQNFFKEGSYIQRMKPWFEVGDENSGWSAQKVTNLHLMLQLVRVLVSPTNPPGATSSCQKAMFQCGLLQQLCTILMATGVPADILTETINTVSEVIRGCQVNQDYFASVNAPSNPPRPAIVVLLMSMVNERQPFVLRCAVLYCFQCFLYKNQKGQGEIVSTLLPSTIDATGNSVSAGQLLCGGLFSTDSLSNWCAAVALAHALQENATQKEQLLRVQLATSIGNPPVSLLQQCTNILSQGSKIQTRVGLLMLLCTWLSNCPIAVTHFLHNSANVPFLTGQIAENLGEEEQLVQGLCALLLGISIYFNDNSLESYMKEKLKQLIEKRIGKENFIEKLGFISKHELYSRASQKPQPNFPSPEYMIFDHEFTKLVKELEGVITKAIYKSSEEDKKEEEVKKTLEQHDNIVTHYKNMIREQDLQLEELRQQVSTLKCQNEQLQTAVTQQVSQIQQHKDQYNLLKIQLGKDNQHQGSYSEGAQMNGIQPEEIGRLREEIEELKRNQELLQSQLTEKDSMIENMKSSQTSGTNEQSSAIVSARDSEQVAELKQELATLKSQLNSQSVEITKLQTEKQELLQKTEAFAKSVEVQGETETIIATKTTDVEGRLSALLQETKELKNEIKALSEERTAIKEQLDSSNSTIAILQTEKDKLELEITDSKKEQDDLLVLLADQDQKILSLKNKLKDLGHPVEEEDELESGDQEDEDDESEDPGKDLDHI
[1]
  binding: no binding
[2]
  binding: no binding

B2: endogenous p115 (HeLa) (protein, UniProt O60763 1-962)
chain: MNFLRGVMGGQSAGPQHTEAETIQKLCDRVASSTLLDDRRNAVRALKSLSKKYRLEVGIQAMEHLIHVLQTDRSDSEIIGYALDTLYNIISNEEEEEVEENSTRQSEDLGSQFTEIFIKQQENVTLLLSLLEEFDFHVRWPGVKLLTSLLKQLGPQVQQIILVSPMGVSRLMDLLADSREVIRNDGVLLLQALTRSNGAIQKIVAFENAFERLLDIISEEGNSDGGIVVEDCLILLQNLLKNNNSNQNFFKEGSYIQRMKPWFEVGDENSGWSAQKVTNLHLMLQLVRVLVSPTNPPGATSSCQKAMFQCGLLQQLCTILMATGVPADILTETINTVSEVIRGCQVNQDYFASVNAPSNPPRPAIVVLLMSMVNERQPFVLRCAVLYCFQCFLYKNQKGQGEIVSTLLPSTIDATGNSVSAGQLLCGGLFSTDSLSNWCAAVALAHALQENATQKEQLLRVQLATSIGNPPVSLLQQCTNILSQGSKIQTRVGLLMLLCTWLSNCPIAVTHFLHNSANVPFLTGQIAENLGEEEQLVQGLCALLLGISIYFNDNSLESYMKEKLKQLIEKRIGKENFIEKLGFISKHELYSRASQKPQPNFPSPEYMIFDHEFTKLVKELEGVITKAIYKSSEEDKKEEEVKKTLEQHDNIVTHYKNMIREQDLQLEELRQQVSTLKCQNEQLQTAVTQQVSQIQQHKDQYNLLKIQLGKDNQHQGSYSEGAQMNGIQPEEIGRLREEIEELKRNQELLQSQLTEKDSMIENMKSSQTSGTNEQSSAIVSARDSEQVAELKQELATLKSQLNSQSVEITKLQTEKQELLQKTEAFAKSVEVQGETETIIATKTTDVEGRLSALLQETKELKNEIKALSEERTAIKEQLDSSNSTIAILQTEKDKLELEITDSKKEQDDLLVLLADQDQKILSLKNKLKDLGHPVEEEDELESGDQEDEDDESEDPGKDLDHI
[3]
  binding: no binding
[4]
  binding: no binding

These are yes or no findings as the source states them, for the method shown. For some of these results: In cells and extracts the contact can be indirect.
